For 1 compound, IC50 and Selectivity index results are on record in article PMC6301270 (MedChemComm, 2018).

For experiment [1], the system named is T.b. brucei (strain 427) bloodstream form parasites. The experiment is described as follows: Trypanosoma brucei assay, dose–response (this study). The class given is cell-based.
In experiment [2] the test system is HeLa cells. The experiment is described as follows: HeLa cell assay (cytotoxicity). The class given is cell-based. The settings on record: Homo sapiens, Table 2, 48 hours, resazurin. On the procedure:
HeLa cells were cultured in DMEM medium supplemented with 10% fetal bovine serum and antibiotics (penicillin/streptomycin/amphotericin B) at 37 °C in a 5% CO2 incubator. On the day prior to compound addition, cells were plated in 96-well plates at 2 × 10^4 cells per well. Compounds were added to the cells in 3-fold serial dilutions and incubation at 37 °C in a 5% CO2 incubator continued for 48 hours. Twenty μl resazurin reagent (0.5 mM resazurin in phosphate-buffered saline) was added to each well and, after a 2-hour incubation, fluorescence (Exc560/Em590) was measured in a plate reader. Percentage cell viability in drug-treated wells was calculated from the fluorescent readings obtained relative to those in wells containing control, untreated cells. Plots of % cell viability vs. log[compound] were used to determine IC50 values by non-linear regression analysis using GraphPad Prism.
A general note: Alamar Blue is a resazurin reagent that responds to reducing activity.

Molecules are shown by their SMILES.

Consider `CN1CCCC1CCO[C@](C)(c1ccccc1)c1ccc(Cl)cc1` (stereo partly drawn) [Compound 62, ClC1=CC=C([C@@](C)(C2=CC=CC=C2)OCCC3N(C)CCC3)C=C1], for which the IC50 (commonly the concentration that gives 50% inhibition) in experiment [1] (Trypanosoma brucei, Table 2, remaining Pathogen Box, 48 hours at 37 °C, resazurin) was 3.5 µM; in experiment [2], above 25 µM. Further, in experiment [1] (calculated as IC50(HeLa)/IC50(T.bb)), the Selectivity index was above 7.1.
